Data taken from patent publication US20040106120A1, “Diagnosis and treatment of disease” (priority 2000, published 2004).

Legend:
[1] = system: eczema lesional and non-lesional skin; test: Affymetrix oligonucleotide array gene expression in eczema, involved and uninvolved skin compared to normal skin; set-up: species or system human; key: ++: normally expressed; +++: strongly expressed; ++++: highly expressed; +down-regulation; details: for Expression level Involved: eczema lesional skin (involved); for Expression level Uninvolved: eczema non-lesional skin (uninvolved)
[2] = system: psoriatic lesional and non-lesional skin; test: Affymetrix oligonucleotide array gene expression in psoriasis, involved and uninvolved skin compared to normal skin; set-up: species or system human; key: ++: normally expressed; +++: strongly expressed; ++++: highly expressed; +down-regulation; details: protease inhibitor genes

B1: SLPI: Secretory Leukoprotease Inhibitor protein added to cultured skin equivalent (protein, UniProt P03973 26-132, looked up)
Antileukoproteinase: SGKSFKAGVCPPKKSAQCLRYKKPECQSDWQCPGKKRCCPDTCGIKCLDPVDTPNPTRRKPGKCPVTYGQCLMLNPPNFCEMDGQCKRDLKCCMGMCGKSCVSPVKA
Expression level Involved ([1]; protease inhibitor genes): +
Expression level Uninvolved ([1]; protease inhibitor genes): ++
Expression level Involved ([2]; psoriatic lesional skin (involved)): ++++
Expression level Uninvolved ([2]; psoriatic non-lesional skin (uninvolved)): +++

B2: SCCE: recombinant Stratum Corneum Chymotryptic Enzyme, activated with agarose-bound trypsin (protein, UniProt P49862 30-253, looked up)
Kallikrein-7: IIDGAPCARGSHPWQVALLSGNQLHCGGVLVNERWVLTAAHCKMNEYTVHLGSDTLGDRRAQRIKASKSFRHPGYSTQTHVNDLMLVKLNSQARLSSMVKKVRLPSRCEPPGTTCTVSGWGTTTSPDVTFPSDLMCVDVKLISPQDCTKVYKDLLENSMLCAGIPDSKKNACNGDSGGPLVCRGTLQGLVSWGTFPCGQPNDPGVYTQVCKFTKWINDTMKKHR
modifications: activated with trypsin
Expression level Involved ([1]; protease genes): ++++
Expression level Uninvolved ([1]; protease genes): +++
